The text below walks through data of US20160041153.

The chains behind the UniProt entries cited, without tags or fusion partners. Residues count along the entry.
UniProt P16422, 24-314: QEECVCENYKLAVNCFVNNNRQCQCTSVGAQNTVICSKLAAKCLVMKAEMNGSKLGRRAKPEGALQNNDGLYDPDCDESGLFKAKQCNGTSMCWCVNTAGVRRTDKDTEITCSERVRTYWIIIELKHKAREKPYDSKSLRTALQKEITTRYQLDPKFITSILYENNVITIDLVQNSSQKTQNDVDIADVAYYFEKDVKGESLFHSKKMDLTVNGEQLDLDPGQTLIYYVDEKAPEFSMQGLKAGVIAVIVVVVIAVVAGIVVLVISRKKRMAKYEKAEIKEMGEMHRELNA

At least one result comes from cells or an extract, where the contact may be indirect.

For this data set, the target named is EpCAM (UniProt P16422). Kind of data set: binding assay. The following applies: bead-captured plasma microvesicles from prostate cancer and normal samples, SAPE-labelled aptamer as detector, MFI readout; protein on the cell surface; label: biotin (bound to streptavidin-phycoerythrin); single-stranded DNA.

As for “CCCCCCGAATCACATGACTTGGGCGGGGGTCG [EpCAM Aptamer 4]”, the binding result is “binds”.
